In assay [1] the target is endogenously expressed BABAM2 (human (endogenous in A549)) (UniProt Q9NXR7). Briefly: co-IP; endogenous MDM2 and BABAM2 in A549 cells; precipitating antibody not told.
The target in another assay is HA-BABAM2 (UniProt Q9NXR7). Briefly: co-IP; exogenously expressed HA-BABAM2 and Flag-MDM2; cells and precipitating antibody not told.
Another assay addresses T1, GST-PPDPF (human) (UniProt Q9H3Y8).
T1 sequence: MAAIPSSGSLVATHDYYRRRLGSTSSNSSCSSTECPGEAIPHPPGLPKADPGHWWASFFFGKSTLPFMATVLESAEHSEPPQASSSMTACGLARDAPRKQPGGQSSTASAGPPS
The experiment in a line: pull-down; fusion protein GST-PPDPF with endogenously expressed BABAM2 of A549 cells; conditions not given; only the target purified.

Chains of the proteins cited; added tags and fusions are not shown.
UniProt Q9NXR7: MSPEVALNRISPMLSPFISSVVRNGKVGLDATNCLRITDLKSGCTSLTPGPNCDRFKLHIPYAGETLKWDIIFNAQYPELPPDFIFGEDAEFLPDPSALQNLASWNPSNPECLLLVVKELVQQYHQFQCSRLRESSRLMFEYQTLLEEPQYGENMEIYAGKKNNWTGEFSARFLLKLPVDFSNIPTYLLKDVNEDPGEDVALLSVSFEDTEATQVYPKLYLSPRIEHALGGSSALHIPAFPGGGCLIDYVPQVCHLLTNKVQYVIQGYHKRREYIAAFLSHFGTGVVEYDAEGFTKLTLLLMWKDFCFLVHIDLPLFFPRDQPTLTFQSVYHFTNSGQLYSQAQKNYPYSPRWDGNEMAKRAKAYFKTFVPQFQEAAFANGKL
UniProt Q00987: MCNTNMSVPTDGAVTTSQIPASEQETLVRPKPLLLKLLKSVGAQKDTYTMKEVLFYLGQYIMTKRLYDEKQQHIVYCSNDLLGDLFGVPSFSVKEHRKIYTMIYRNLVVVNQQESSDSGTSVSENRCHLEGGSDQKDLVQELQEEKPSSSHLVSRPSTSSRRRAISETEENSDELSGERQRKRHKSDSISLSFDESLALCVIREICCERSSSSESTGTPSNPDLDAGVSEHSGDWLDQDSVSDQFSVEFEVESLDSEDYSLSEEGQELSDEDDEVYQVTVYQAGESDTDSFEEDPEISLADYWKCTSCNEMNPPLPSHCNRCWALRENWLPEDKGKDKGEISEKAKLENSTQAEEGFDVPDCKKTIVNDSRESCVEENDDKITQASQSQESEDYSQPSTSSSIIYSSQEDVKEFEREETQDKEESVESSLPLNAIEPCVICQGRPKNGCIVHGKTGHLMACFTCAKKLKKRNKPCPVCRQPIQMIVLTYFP

Results are given in words; binding and its absence hold for the method and conditions named. In cells and extracts the contact can be indirect. Some results given as binding are weak or reduced against the parent protein; the word gives no strength. For part of these data: Sequences can lack the tags named with a protein.

With “endogenous MDM2 (from UniProt Q00987 1-491)”, the binding entry in assay [1] is listed as “binds”.

Regarding Flag-MDM2 (from UniProt Q00987 1-491), the binding result with HA-BABAM2 is “binds”.

For “endogenously expressed BABAM2 (from UniProt Q9NXR7 1-383)”, the binding entry in the assay with GST-PPDPF (human) is on record as “binds”.

Values taken from publication PMC8692159.
